Data source: PubChem BioAssay AID1259308 (NCATS, 2017)

Test: 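Candidate targets for better recombinant protein yield in mammalian cells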 (primary screen)
Cells: human HEK293 embryonic kidney cells stably expressing firefly luciferase (HEK-CMV-Luc2-Hygro)
Reagent: single siRNA against human genes, 0.8 pmol siRNA per well
Duration: 72 h
Measurement: 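Luciferase light (ONE-Glo) measured on one replicate plate set and viability (CellTiter-Glo) on the other, scaled to a negative control siRNA, with robust z-scores and luciferase per cell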
Scale: total luciferase, z-score and total luciferase, % of control: higher = more reporter protein produced; luciferase per cell, z-score: higher = more reporter output per viable cell; viable cells, % of control: higher = more viable cells
Rule for the call: 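An siRNA counts as active if its total luciferase robust z-score exceeds 3; genes with two or more such siRNAs out of three were retested with fresh siRNAs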
Meaning of the calls: active = raised luciferase; inactive = no rise
The whole screen tested about 59,000 reagents; this is an unselected part. About 1,510 of all reagents (2.6%) count as active. 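Calls use total luciferase alone and ignore viability, so some active siRNAs may act by altering cell number.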 Reagents against one gene are numbered here.

The first 2 entries, to show the layout:
no.	Gene	reagent	total luciferase, z-score	total luciferase, % of control	luciferase per cell, z-score	viable cells, % of control	Call
1	KRTAP9-2 (keratin associated protein 9-2)	1	0.183	85.5	2.09	55.2	inactive
2	KRTAP9-2 (keratin associated protein 9-2)	2	0.721	96.2	0.442	95.7	inactive

Results, from the start:
no.	Gene	reagent	total luciferase, z-score	total luciferase, % of control	luciferase per cell, z-score	viable cells, % of control	Call
1	KRTAP9-2 (keratin associated protein 9-2)	1	0.183	85.5	2.09	55.2	inactive
2	KRTAP9-2 (keratin associated protein 9-2)	2	0.721	96.2	0.442	95.7	inactive
3	KRTAP9-2 (keratin associated protein 9-2)	3	-0.675	68.5	-1.11	103	inactive
4	SMIM15 (small integral membrane protein 15)	1	0.762	97	0.262	101	inactive
5	SMIM15 (small integral membrane protein 15)	2	0.313	88.1	-0.126	102	inactive
6	SMIM15 (small integral membrane protein 15)	3	0.451	90.9	-0.348	111	inactive
7	OR5B21 (olfactory receptor family 5 subfamily B member 21)	1	3.48	151	2.04	98.7	active
8	OR5B21 (olfactory receptor family 5 subfamily B member 21)	2	1.11	104	1	89.2	inactive
9	OR5B21 (olfactory receptor family 5 subfamily B member 21)	3	-1.76	46.9	-1.85	85.4	inactive
10	FKBP9P1 (FKBP prolyl isomerase 9 pseudogene 1)	1	-0.901	64	1.46	48.6	inactive
11	FKBP9P1 (FKBP prolyl isomerase 9 pseudogene 1)	2	0.295	87.7	1.17	72	inactive
12	FKBP9P1 (FKBP prolyl isomerase 9 pseudogene 1)	3	3.5	152	3.4	69.2	active
13	RHAG (Rh associated glycoprotein)	1	0.985	101	0.61	96.6	inactive
14	RHAG (Rh associated glycoprotein)	2	-1.69	48.2	-2.14	94.6	inactive
15	RHAG (Rh associated glycoprotein)	3	-0.835	65.3	-0.871	91.7	inactive
16	ANKRD36 (ankyrin repeat domain 36)	1	-0.218	77.6	-0.104	89.1	inactive
17	ANKRD36 (ankyrin repeat domain 36)	2	0.404	89.9	1.35	70.4	inactive
18	ANKRD36 (ankyrin repeat domain 36)	3	-1.38	54.4	-1.14	81.9	inactive
19	TRIM7 (tripartite motif containing 7)	1	3.6	153	3.7	64.8	active
20	TRIM7 (tripartite motif containing 7)	2	2.52	132	2.44	77.6	inactive
21	TRIM7 (tripartite motif containing 7)	3	0.225	86.4	0.194	91.7	inactive
22	WDR3 (WD repeat domain 3)	1	2.11	124	1.09	104	inactive
23	WDR3 (WD repeat domain 3)	2	-1.57	50.7	-1.82	91.6	inactive
24	WDR3 (WD repeat domain 3)	3	-0.063	80.6	-0.317	98	inactive
